These are yes or no findings as the source states them, for the method shown. Some entries that bind do so weakly or less than the wild type. One block for each binder: values may come before it.
What was measured:
VEGF165-Biotin [1] = target: VEGF165-Biotin (UniProt P15692); assay: binding kinetics on VEGF165-Biotin, instrument not named
hCD64-Biotin (human) [2] = target: hCD64-Biotin (human) (UniProt P12314); assay: binding kinetics on biotinylated Fc receptor, instrument not named
hFcRn-β2M-Biotin (human) [3] = target: T1, hFcRn-β2M-Biotin (human) (UniProt P55899+P61769); assay: as above
hCD64-Biotin (human) [4] = target: hCD64-Biotin (human) (UniProt P12314); assay: binding kinetics on hCD64-Biotin, signal (nm) against time (sec); construct diluted 1:5 from 50 nM, concentrations not labelled on the sheet; platform not named
hFcRn-β2M-Biotin (human) [5] = target: T1, hFcRn-β2M-Biotin (human); assay: binding kinetics on hFcRn-β2M-Biotin, signal (nm) against time (sec); construct diluted 1:5 from 200 nM, concentrations not labelled on the sheet; platform not named
VEGF165-Biotin [6] = target: VEGF165-Biotin (UniProt P15692); assay: binding kinetics on VEGF165-Biotin, signal (nm) against time (sec); construct diluted 1:5 from 10 nM, concentrations not labelled on the sheet; platform not named
VEGF165-Biotin [7] = target: VEGF165-Biotin (UniProt P15692); assay: binding kinetics on VEGF165-Biotin, signal (nm) against time (sec); construct tested only at the highest concentration, 10 nM, not labelled on the sheet; platform not named
VEGF165-Biotin [8] = target: VEGF165-Biotin (UniProt P15692); assay: binding kinetics on VEGF165-Biotin, instrument not named; only 10 nM tested

Amino acid sequences for entries named in this document (tags omitted). A change or cut given only in a name is not applied to a line headed by its entry. Chains listed by the source or under a name are the forms on record and can include a tag or linker. Residues count along the entry.
VEGF165-Biotin (P15692, form named): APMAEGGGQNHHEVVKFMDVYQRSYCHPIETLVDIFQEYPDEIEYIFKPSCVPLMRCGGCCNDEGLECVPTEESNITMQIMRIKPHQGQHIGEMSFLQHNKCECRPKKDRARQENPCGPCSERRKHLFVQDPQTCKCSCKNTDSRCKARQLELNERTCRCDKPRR
UniProt P12314, residues 16-288: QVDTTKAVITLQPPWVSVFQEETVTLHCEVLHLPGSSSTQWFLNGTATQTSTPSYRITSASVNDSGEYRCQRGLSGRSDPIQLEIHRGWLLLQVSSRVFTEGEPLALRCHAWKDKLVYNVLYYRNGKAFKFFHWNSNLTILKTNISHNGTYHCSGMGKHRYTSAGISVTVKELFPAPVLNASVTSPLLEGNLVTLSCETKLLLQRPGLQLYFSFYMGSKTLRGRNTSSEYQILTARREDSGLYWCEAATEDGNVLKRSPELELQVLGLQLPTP
UniProt P55899: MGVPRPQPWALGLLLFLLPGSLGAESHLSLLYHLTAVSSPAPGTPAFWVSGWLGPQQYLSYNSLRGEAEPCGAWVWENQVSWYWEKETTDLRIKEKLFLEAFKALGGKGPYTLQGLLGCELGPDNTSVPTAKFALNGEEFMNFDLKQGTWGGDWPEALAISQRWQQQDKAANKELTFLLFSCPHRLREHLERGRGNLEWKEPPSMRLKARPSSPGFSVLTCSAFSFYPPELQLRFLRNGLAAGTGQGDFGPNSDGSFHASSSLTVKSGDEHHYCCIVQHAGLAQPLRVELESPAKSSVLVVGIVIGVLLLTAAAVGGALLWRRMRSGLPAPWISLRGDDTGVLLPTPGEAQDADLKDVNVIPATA
UniProt P61769: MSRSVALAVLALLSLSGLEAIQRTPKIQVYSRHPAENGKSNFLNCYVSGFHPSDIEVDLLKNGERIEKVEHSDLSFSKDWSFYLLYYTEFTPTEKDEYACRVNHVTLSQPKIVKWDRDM

binding (VEGF165-Biotin [1]): binds | binding (hCD64-Biotin (human) [2]): binds | binding (hFcRn-β2M-Biotin (human) [3]): binds | binding (hCD64-Biotin (human) [4]): binds | binding (hFcRn-β2M-Biotin (human) [5]): binds | binding (VEGF165-Biotin [6]): binds
B1: Hex-REGN3 (IgG1) Mut1 LALAPG (Fc fusion)
chain: SDTGRPFVEMYSEIPEIIHMTEGRELVIPCRVTSPNITVTLKKFPLDTLIPDGKRIIWDSRKGFIISNATYKEIGLLTCEATVNGHLYKTNYLTHRQTNTIIDVVLSPSHGIELSVGEKLVLNCTARTELNVGIDFNWEYPSSKHQHKKLVNRDLKTQSGSEMKKFLSTLTIDGVTRSDQGLYTCAASSGLMTKKNSTFVRVHEKDKTHTCPPCPAPEAAGGPSVFLFPPKPKDTLMISRTPEVTCVVVDVSHEDPEVKFNWYVDGVEVHNAKTKPREEQYNSTYRVVSVLTVCHQDWLNGKEYKCKVSNKALGAPIEKTISKAKGQPREPQVYTLPPSREEMTKNQVSLTCLVKGFYPSDIAVEWESNGQPENNYKTTPPVLDSDGSFFLYSKLTVDKSRWQQGNVFSCSVMHEALHNHYTQKSLDKSTGKPTLYNVSLIMSDTGGTCY

binding (VEGF165-Biotin [7]): binds | binding (VEGF165-Biotin [8]): binds
B2: Hex-REGN3 (IgG1) Mut1-V2 PVA/P329A (Fc fusion)
chain: SDTGRPFVEMYSEIPEIIHMTEGRELVIPCRVTSPNITVTLKKFPLDTLIPDGKRIIWDSRKGFIISNATYKEIGLLTCEATVNGHLYKTNYLTHRQTNTIIDVVLSPSHGIELSVGEKLVLNCTARTELNVGIDFNWEYPSSKHQHKKLVNRDLKTQSGSEMKKFLSTLTIDGVTRSDQGLYTCAASSGLMTKKNSTFVRVHEKDKTHTCPPCPAPPVAGPSVFLFPPKPKDTLMISRTPEVTCVVVDVSHEDPEVKFNWYVDGVEVHNAKTKPREEQYNSTYRVVSVLTVCHQDWLNGKEYKCKVSNKALAAPIEKTISKAKGQPREPQVYTLPPSREEMTKNQVSLTCLVKGFYPSDIAVEWESNGQPENNYKTTPPVLDSDGSFFLYSKLTVDKSRWQQGNVFSCSVMHEALHNHYTQKSLDKSTGKPTLYNVSLVMSDTAGTCY
